Results are given in words; binding and its absence hold for the method and conditions named. Where a sequence is shown, tags or fusion partners need not be part of it.

Chains of the proteins cited; added tags and fusions are not shown. Residues count along the entry.
UniProt P04792, residues 84-171: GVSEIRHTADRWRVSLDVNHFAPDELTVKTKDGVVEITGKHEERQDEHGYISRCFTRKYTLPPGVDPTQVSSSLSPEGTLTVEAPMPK

The source of these data is paper PMC6530996, “HspB1 phosphorylation regulates its intramolecular dynamics and mechanosensitive molecular chaperone interaction with filamin C” (Science Advances, 2019).

The assay addresses T1, human FLNC domains 18 to 21 (FLNC_(d18–21)), EEF-tagged (human) (UniProt Q14315).
T1 sequence: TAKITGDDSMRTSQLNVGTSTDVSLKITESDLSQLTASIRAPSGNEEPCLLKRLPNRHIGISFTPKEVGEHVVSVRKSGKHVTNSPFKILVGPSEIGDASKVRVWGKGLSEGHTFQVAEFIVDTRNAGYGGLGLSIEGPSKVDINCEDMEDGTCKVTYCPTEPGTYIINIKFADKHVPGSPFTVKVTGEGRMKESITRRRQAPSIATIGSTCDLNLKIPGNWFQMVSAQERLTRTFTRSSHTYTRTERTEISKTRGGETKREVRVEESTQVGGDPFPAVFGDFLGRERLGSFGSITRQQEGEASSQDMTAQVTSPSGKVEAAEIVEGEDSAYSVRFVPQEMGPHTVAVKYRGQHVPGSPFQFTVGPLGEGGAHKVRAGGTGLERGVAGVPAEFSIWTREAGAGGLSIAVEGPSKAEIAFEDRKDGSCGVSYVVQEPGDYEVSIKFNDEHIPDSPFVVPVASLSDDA
As to the kind of experiment: native MS; native IM-MS of mixtures of FLNC_(d18–21) or FLNC_(d18–21,ΔI) with HspB1_(84–171), HspB1 peptides or an excess of control peptides; 200 mM ammonium acetate pH 6.9; both purified.

On to “human HspB1 α-crystallin domain, HspB1_(84–171) (from UniProt P04792 84-171) (domain or fragment)”, for which the binding entry is “no binding”.
The same measure for “peptide mimicking HspB1 C-terminal residues 177 to 186 (from UniProt P04792 177-186)”: “no binding (tested: an excess of peptide)”.
